Laboratory results taken from US20230242674A1.
No constants are given. Whether binding was seen depends on the method and setting. Some entries that bind do so weakly or less than the wild type. Each block holds one binder with its values, some of them ahead of it.

Amino acid sequences for entries named in this document (tags omitted). A change or cut given only in a name is not applied to a line headed by its entry.
UniProt Q6ZQW0: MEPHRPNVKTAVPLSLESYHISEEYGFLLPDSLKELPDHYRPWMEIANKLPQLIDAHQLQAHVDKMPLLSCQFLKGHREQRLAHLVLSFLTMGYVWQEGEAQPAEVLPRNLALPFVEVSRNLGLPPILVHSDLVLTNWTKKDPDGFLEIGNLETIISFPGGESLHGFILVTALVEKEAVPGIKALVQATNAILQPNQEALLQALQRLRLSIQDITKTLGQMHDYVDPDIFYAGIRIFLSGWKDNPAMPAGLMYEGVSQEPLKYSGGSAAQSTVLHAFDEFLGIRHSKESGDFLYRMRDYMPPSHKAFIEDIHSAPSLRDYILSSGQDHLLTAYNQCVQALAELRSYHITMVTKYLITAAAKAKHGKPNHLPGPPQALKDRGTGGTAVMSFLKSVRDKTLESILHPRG
UniProt Q8R0V5: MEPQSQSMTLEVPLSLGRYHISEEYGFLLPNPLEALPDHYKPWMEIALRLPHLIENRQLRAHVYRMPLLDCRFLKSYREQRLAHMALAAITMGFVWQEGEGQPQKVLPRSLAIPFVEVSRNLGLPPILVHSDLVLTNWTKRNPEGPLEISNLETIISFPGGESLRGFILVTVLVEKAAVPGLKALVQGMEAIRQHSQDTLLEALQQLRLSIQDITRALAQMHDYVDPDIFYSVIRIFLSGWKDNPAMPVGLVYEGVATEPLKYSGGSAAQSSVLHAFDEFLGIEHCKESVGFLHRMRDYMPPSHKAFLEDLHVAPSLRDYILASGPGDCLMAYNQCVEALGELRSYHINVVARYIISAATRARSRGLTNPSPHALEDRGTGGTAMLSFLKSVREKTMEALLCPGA

Columns and labels:
[1] = target: anti-human IDO2 monoclonal antibody 20-10; test: competitive ELISA; soluble peptide titrated against 1 µg/ml mAb in solution; competitor: coated recombinant human IDO2 (100 ng); plate-bound mAb detected with anti-mouse IgG Fc HRP and ABTS
[2] = target: anti-human IDO2 monoclonal antibody 18-1; test: as above
[3] = target: anti-human IDO2 monoclonal antibody 13-3; test: as above
[4] = target: T1, murine IDO2 epitope peptide (amino acids 331-351 of murine IDO2) (mouse); test: competitive ELISA, soluble mouse epitope peptide competes with coated recombinant human IDO2
T1 sequence (peptide): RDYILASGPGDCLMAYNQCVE

[5] = target: recombinant human IDO2 protein (human) (UniProt Q6ZQW0); test: direct ELISA, plate coated with 100 ng recombinant human IDO2, anti-mouse IgG Fc-HRP detection
[6] = target: mouse IDO2 with V5 tag, expressed in T-REx cells (mouse) (UniProt Q8R0V5); test: Western blot of T-REx cell extracts; HRP secondary antibody, chemiluminescence
[7] = target: recombinant human IDO2 protein (human) (UniProt Q6ZQW0); test: competitive ELISA, plate coated with recombinant human IDO2, soluble peptide competitor
[8] = target: recombinant human IDO2 protein (human) (UniProt Q6ZQW0); test: ELISA; plate coated with 100 ng recombinant human IDO2; detection with anti-mouse IgG Fc-specific HRP and ABTS
[9] = target: human IDO2 with V5 tag, expressed in T-REx cells (human) (UniProt Q6ZQW0); test: Western blot of T-REx cell extracts; HRP secondary antibody, chemiluminescence

- binding [1]: binds
- binding [2]: binds
- binding [3]: binds
B1: Human Epitope (peptide)
peptide: RDYILSSGQDHLLTAYNQCVQ

- binding [4]: binds
- binding [5]: binds
- binding [6]: binds
- binding [7]: binds
- binding [8]: binds
B2: anti-human IDO2 monoclonal antibody 13-3 (antibody, V domains shown)
VH: QVRLQQPGAELVKPGASVKLSCKASGYTFTSYWMHWVKQRPGQGLEWIGEINPSTGRTNYNERFRSKATLTVDKFSTTAYMQFSSLTSEDSAVYYCVGLRFAYWGQGTLVSVSA
VL: DVVMTQTPLSLPVSFGDQVSISCRSSQSLADSYGNTYLSWYLHKPGQSPQLLIYGISNRFSGVPDRFSGSGSGTDFTLKISTIKPEDLGMYYCLQGTHQPLTFGAGTKLELKR

- binding [4]: binds
- binding [6]: binds
B3: anti-human IDO2 monoclonal antibody 18-1 (antibody, V domains shown)
VH: B2 VH
VL: B2 VL

- binding [4]: binds
- binding [5]: binds
- binding [9]: binds
- binding [6]: binds
- binding [7]: binds
- binding [8]: binds
B4: anti-human IDO2 monoclonal antibody 20-10 (antibody, V domains shown)
VH: B2 VH
VL: B2 VL

- binding [1]: binds
- binding [2]: binds
- binding [3]: binds
B5: murine IDO2 epitope peptide (amino acids 331-351 of murine IDO2) (peptide)
peptide: RDYILASGPGDCLMAYNQCVE
